Data: patent US20260265360A1, “USE OF ANTI-FAM19A5 ANTAGONISTS FOR TREATING HEARING DISORDERS” (NEURACLE SCIENCE CO., LTD., priority 2023, published 2026)
Results are given in words; binding and its absence hold for the method and conditions named. Some results given as binding are weak or reduced against the parent protein; the word gives no strength.

Amino acid sequences for entries named in this document (tags omitted). A change or cut given only in a name is not applied to a line headed by its entry.
UniProt Q7Z5A7: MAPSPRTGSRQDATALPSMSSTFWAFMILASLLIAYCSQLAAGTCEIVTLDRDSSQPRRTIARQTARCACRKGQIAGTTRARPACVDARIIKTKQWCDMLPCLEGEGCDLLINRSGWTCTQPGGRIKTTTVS

Assays:
[1] = molecular target: Human FAM19A5 protein (Wild Type) (human) (UniProt Q7Z5A7); assay: epitope mapping (data not shown); two-site sandwich ELISA
[2] = molecular target: T1, FAM19A5 epitope fragment F5, BSA-conjugated (human); assay: ELISA, plate-coated BSA-conjugated FAM19A5 fragments F1-F6
T1 sequence (peptide, conjugated to BSA): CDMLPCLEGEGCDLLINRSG

[3] = molecular target: T2, F2-11-BSA (#11) (human); assay: ELISA, plate-coated F2 mutant peptides (BSA-conjugated)
T2 sequence (peptide, conjugated to BSA): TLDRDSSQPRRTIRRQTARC

[4] = molecular target: FAM19A5 mutant M5 (human) (UniProt Q7Z5A7); assay: ELISA on phage-expressed FAM19A5 mutants M1-M8

B1: Anti-FAM19A5 antibody 1-65 (antibody, V domains shown)
VH: AVTLDESGGGLQTPGGALSLVCKASGFTFSSYQMGWVRQAPGKGLEWVGVINKSGSDTSYGSAVKGRATISRDNGQSTVRLQLNNLRAEDTGTYFCAKGSASYITAATIDAWGHGTEVIVSS
VL: ALTQPSSVSANPGETVKITCSGGGSSGYGYGWYQQKSPSSAPLTVIYWNDKRPSDIPSRFSGSKSGSTHTLTITGVQAEDEAVYFCGNDDYSSDSGYVGVFGAGTTLTVL
binding [1]: binds
binding [2]: binds

B2: Anti-FAM19A5 antibody P2-C12 (antibody, V domains shown)
VH: QSLEESGGRLVTPGTPLTLTCTVSGFSLSTYAVTWVRQAPGKGLEWIGYINWRGGTSYANWAKGRFTISKTSSTTVDLKMTSPTTEDTATYFCARDASSGAAFGSYGMDPWGPGTLVTVSS
VL: ELDMTQTPSSVSAAVGGTVTIKCQASQSISSYLSWYQQKPGQPPKLLIYEASKLASGVPSRFSGSGYGTEFTLTISDLECADAATYYCQQGYSSTNVWNAFGGGTNVEIK
binding [2]: binds

B3: Anti-FAM19A5 antibody 1-28 (antibody, V domains shown)
VH: AVTLDESGGGLQTPGGALSLVCKASGFDFSDYGMGWVRQAPGKGLEWVAAIRSDGSNPSYGSAVKGRATISKDNGRSTVRLQLNNLRAEDTATYYCAKDGNGYCALDAYRSGGYSCGVYPGSIDAWGHGTEVIVSS
VL: ALTQPSSVSANLEGTVEITCSGSGYGYGWYQQKSPGSAPVTVIYQNDKRPSDIPSRFSGSKSGSTGTLTITGVQVEDEAVYYCGSEDSSTLAGIFGAGTTLTVL
binding [3]: binds

B4: Anti-FAM19A5 antibody 2-13 (antibody, V domains shown)
VH: AVTLDESGGGLQTPGGALSLVCKASGFTFSSHGMFWVRQTPGKGLEYVAEITNDGSGTNYGSAVKGRATISRDNGQSTVRLQLNNLRAEDTGTYFCARSTYECPGGFSCWGDTGQIDAWGHGTEVIVSS
VL: ALTQPSSVSANPGETVKITCSGGSYSYGWFQQKSPGSALVTVIYWDDERPSDIPSRFSGALSGSTNTLTITGVQADDEAVYFCGTEDISGTAGVFGAGTTLTVL
binding [4]: binds

B5: Anti-FAM19A5 antibody P2-A03 (antibody, V domains shown)
VH: QSVEESGGRLVTPGTPLTLTCTVSGFSLNNYDMSWVRQAPGKGLEYIGFMDTDGSAYYATWAKGRFTISRTSTTVDLKMTSPTTEDTATYFCARRGSSYYGGIDIWGPGTPVTVSL
VL: ELDLTQTPASVSEPVGGTVTIKCQASQSIGGNLAWYQQKPGQPPKLLIYRASTLASGVPSRFKGSGSGTDFTLTISDLECADAATYYCQSPAYDPAAYVGNAFGGGTELEIL
binding [1]: binds

B6: Anti-FAM19A5 antibody 13B4 (antibody, V domains shown)
VH: QVQLQESGPGLVKPSGTLSLNCAVSGGSISSSNWWSWVRQPPGKGLEWIGEIYHGGTTNYNPSLKGRVTMSVDKTKNQFSLRLSSVTAVDTAVYYCARWQLVGGLDVWGQGTTVTVSS
VL: SYELTQPLSVSVSPGQTASITCSGDKLGNVYASWYQQKPGQSPTLVIYQDNKRPSGIPERFSGSNSGKTATLTISGTQALDEADYYCQAWDSSTAVFGGGTKLTVL
binding [1]: binds
